Source: patent US6780853B1, “Neuroactive steroids of the androstane and pregnane series” (priority 1995, dated 2004)
Several values for one entry are separate records, joined by “and”; a condition that tells them apart may be missing. Equal values may be shown once. For part of these data: The name of at least one read-out is uncertain. For part of these data: At least one structure is not confirmed: it was looked up by name or label, or the drawing left a doubt.

Tests used:
[1] = tested on: STR (strychnine) convulsions; details: data from Swinyard & Woodhead 1982; cited from earlier work
[2] = tested on: metrazol induced convulsions; details: data from Swinyard & Woodhead 1982; cited from earlier work
[3] = tested on: maximal electroshock tonic seizure; details: data from Swinyard & Woodhead 1982; cited from earlier work
[4] = tested on: BIC (bicuclline) convulsions; details: data from Swinyard & Woodhead 1982; cited from earlier work
[5] = tested on: metrazol induced convulsions; assay: Antimetrazol activity in mice; type: in vivo; details: IP, 50% hpbcd, 10 mg/kg, 10 min before metrazol 85 mg/kg; listed as 3α-Hydroxy-3β-ethenyl-17β-methoxy-5α-androstane
Protocol: Experiments were also performed to determine the physiological relevance of neuroactive steroid and GABA receptor interactions by assessing the ability of compounds of the present invention to prevent metrazol induced convulsions in mice. Mice were injected with various doses of the test compounds of the invention, 10 minutes prior to the injection of metrazol. The time to onset of myoclonus (presence of forelimb clonic activity) induced by metrazol was determined by observing each mouse for a period of 30 minutes. In control mice, metrazol (85 mg/kg) will induce convulsion in 95% of the animals.
The anticonvulsant tests are similar to that described above.

SMILES	ED50 STR [1]	ED50 PTZ [2]	ED50 MES [3]	ED50 BIC [4]	% Protected [5]
CCC1(c2ccccc2)C(=O)NC(=O)NC1=O [Phenobarbital]	95 mg/kg	13 mg/kg	22 mg/kg	38 mg/kg	
CCCC(CCC)C(=O)O [Valproate]	293 mg/kg	154 mg/kg	272 mg/kg	360 mg/kg	
C=C[C@@]1(O)CC[C@@]2(C)[C@@H](CC[C@@H]3[C@@H]2CC[C@]2(C)[C@@H](OC)CC[C@@H]32)C1 [3β-Ethenyl-3α-hydroxy-17β-methoxy-5α-androstane]					87.5% and 62.5%
